PMC11806014
No constants are given. Whether binding was seen depends on the method and setting. Binding seen in cells or lysates may run through a third protein. Some entries that bind do so weakly or less than the wild type.

The chains behind the UniProt entries cited, without tags or fusion partners.
UniProt P51587: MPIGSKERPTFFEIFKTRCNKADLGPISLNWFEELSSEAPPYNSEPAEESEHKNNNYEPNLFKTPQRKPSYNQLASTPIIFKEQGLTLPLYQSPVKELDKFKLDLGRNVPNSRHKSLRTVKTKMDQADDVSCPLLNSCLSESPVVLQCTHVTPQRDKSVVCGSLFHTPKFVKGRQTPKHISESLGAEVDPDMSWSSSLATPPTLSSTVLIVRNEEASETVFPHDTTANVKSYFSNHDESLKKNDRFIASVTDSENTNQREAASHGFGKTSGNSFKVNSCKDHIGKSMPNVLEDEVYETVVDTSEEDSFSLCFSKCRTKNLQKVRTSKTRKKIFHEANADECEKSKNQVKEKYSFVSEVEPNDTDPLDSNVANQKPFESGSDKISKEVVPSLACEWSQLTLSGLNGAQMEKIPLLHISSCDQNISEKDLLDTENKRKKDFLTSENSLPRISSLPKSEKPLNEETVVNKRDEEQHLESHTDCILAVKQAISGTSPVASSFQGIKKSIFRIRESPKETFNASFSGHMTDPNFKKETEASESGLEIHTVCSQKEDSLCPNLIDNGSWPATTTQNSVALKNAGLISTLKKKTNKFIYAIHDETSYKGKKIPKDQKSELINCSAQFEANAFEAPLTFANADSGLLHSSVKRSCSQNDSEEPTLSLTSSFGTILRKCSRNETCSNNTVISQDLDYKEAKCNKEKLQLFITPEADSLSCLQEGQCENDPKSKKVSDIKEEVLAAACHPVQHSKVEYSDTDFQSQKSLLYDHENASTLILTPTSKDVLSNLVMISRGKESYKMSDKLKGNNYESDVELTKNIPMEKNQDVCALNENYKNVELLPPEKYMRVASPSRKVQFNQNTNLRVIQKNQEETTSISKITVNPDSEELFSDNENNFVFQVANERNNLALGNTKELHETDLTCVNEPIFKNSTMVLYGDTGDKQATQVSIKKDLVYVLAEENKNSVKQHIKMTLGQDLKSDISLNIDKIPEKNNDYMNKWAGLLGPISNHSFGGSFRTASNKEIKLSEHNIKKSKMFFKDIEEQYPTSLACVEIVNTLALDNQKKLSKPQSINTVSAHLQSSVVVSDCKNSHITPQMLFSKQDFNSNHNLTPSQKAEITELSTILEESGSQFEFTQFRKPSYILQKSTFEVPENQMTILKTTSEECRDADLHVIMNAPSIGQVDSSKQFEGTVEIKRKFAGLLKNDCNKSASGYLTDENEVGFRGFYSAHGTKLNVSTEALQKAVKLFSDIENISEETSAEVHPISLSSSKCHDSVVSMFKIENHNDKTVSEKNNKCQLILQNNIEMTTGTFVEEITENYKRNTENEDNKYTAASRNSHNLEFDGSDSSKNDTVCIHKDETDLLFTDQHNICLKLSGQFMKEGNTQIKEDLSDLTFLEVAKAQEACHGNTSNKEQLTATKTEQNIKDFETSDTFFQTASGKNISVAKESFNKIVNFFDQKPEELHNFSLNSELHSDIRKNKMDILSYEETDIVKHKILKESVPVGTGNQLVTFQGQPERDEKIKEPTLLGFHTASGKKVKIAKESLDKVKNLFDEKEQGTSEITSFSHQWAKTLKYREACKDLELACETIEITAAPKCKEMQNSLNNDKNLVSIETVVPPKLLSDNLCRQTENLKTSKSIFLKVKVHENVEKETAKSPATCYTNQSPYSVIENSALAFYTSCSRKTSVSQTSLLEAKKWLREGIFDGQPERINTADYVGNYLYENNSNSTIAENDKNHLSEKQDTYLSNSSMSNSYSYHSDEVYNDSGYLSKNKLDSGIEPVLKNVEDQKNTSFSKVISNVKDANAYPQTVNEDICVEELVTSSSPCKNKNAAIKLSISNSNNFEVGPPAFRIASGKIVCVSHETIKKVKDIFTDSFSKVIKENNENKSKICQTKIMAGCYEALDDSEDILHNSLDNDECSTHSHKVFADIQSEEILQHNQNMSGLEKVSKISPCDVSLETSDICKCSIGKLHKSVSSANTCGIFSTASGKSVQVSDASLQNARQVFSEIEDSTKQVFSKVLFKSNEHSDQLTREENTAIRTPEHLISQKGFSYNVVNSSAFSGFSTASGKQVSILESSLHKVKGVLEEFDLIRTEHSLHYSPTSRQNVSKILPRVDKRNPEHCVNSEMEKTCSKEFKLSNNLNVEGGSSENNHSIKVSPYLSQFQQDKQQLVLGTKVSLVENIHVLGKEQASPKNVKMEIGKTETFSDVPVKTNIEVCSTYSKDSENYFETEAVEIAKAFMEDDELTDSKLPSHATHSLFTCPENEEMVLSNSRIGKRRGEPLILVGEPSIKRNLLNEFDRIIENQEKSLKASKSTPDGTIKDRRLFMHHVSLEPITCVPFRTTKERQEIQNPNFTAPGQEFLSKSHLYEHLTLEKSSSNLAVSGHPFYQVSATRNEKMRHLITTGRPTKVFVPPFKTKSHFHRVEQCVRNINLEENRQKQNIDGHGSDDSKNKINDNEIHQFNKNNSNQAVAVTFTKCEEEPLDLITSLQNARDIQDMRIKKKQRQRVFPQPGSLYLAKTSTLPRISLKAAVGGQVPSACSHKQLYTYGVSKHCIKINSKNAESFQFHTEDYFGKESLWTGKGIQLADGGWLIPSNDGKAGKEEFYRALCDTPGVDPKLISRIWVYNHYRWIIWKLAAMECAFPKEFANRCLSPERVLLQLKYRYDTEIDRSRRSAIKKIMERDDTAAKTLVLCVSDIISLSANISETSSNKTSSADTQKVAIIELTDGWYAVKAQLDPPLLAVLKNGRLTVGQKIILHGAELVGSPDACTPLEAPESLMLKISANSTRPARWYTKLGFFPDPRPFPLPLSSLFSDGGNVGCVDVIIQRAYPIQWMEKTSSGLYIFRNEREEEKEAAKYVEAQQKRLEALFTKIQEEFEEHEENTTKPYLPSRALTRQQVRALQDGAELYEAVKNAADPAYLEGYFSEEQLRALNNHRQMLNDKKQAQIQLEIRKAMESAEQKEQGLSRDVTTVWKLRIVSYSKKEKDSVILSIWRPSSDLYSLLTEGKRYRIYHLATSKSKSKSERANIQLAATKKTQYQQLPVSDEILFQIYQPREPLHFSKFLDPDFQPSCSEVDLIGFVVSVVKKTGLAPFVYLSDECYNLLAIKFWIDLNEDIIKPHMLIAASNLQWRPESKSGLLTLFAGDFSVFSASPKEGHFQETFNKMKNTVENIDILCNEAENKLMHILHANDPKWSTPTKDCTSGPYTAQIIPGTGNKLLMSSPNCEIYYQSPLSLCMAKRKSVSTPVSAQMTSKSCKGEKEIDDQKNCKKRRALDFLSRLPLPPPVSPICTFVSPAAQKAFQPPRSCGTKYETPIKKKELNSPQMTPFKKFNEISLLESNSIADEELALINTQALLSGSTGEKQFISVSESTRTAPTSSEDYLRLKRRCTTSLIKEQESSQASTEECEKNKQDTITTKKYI
UniProt Q06609: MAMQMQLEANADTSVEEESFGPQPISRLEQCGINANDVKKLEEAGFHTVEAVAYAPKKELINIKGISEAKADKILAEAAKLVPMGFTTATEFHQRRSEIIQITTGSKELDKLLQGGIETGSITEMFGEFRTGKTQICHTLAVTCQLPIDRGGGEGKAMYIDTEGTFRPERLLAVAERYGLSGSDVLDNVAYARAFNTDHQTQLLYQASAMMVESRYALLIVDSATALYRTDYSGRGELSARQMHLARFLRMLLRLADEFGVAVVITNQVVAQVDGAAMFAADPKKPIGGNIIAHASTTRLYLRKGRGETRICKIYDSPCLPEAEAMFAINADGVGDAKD

Key:
[1] = molecular target: T1, CCCTC-binding factor (CTCF) (human (endogenous in U251)) (UniProt P49711); assay: proximity ligation; Duolink PLA on fixed, permeabilised U251 cells treated with 150 μM TMZ for 24 h; also with αKG, TET1/TET2 overexpression, TET1/TET2 knockout, CTCF knockdown
T1 sequence: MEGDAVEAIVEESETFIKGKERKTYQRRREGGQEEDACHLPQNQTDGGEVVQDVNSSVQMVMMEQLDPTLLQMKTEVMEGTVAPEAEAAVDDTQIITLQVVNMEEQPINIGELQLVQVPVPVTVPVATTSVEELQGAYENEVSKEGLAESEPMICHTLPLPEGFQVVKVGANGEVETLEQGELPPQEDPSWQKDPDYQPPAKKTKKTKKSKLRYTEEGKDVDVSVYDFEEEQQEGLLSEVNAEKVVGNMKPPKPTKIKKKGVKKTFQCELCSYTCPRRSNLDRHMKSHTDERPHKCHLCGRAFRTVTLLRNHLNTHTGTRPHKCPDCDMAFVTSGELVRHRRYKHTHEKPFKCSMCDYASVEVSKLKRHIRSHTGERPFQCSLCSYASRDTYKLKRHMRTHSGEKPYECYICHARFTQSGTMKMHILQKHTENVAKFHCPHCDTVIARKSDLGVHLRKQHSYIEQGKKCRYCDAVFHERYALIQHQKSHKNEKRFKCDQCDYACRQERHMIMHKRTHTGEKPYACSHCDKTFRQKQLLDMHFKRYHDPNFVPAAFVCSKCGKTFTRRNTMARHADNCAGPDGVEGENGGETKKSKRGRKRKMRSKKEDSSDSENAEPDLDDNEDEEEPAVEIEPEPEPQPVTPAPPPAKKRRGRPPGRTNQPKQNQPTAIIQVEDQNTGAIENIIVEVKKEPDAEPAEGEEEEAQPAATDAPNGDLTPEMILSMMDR

[2] = molecular target: T1, CCCTC-binding factor (CTCF) (human (endogenous in U251)); assay: co-IP; Dynabeads Protein G with 2 μg antibody, cell lysates of U251 (IDH1 WT, R132H, R132C) treated with 150 μM TMZ; also with D-2-HG, αKG, AG-120, TET1/TET2 overexpression or knockout, CTCF knockdown; IgG as control

binding [1]	binding [2]	Substance
binds	binds	BRCA2 (from UniProt P51587 1-3418)
binds	binds	RAD51 (from UniProt Q06609 1-339)
